# Laboratory results reported in PMC4612562, “Coronin 2A (CRN5) expression is associated with colorectal adenoma-adenocarcinoma sequence and oncogenic signalling” (BMC Cancer, 2015).
# The chains behind the UniProt entries cited, without tags or fusion partners.
# UniProt O14744: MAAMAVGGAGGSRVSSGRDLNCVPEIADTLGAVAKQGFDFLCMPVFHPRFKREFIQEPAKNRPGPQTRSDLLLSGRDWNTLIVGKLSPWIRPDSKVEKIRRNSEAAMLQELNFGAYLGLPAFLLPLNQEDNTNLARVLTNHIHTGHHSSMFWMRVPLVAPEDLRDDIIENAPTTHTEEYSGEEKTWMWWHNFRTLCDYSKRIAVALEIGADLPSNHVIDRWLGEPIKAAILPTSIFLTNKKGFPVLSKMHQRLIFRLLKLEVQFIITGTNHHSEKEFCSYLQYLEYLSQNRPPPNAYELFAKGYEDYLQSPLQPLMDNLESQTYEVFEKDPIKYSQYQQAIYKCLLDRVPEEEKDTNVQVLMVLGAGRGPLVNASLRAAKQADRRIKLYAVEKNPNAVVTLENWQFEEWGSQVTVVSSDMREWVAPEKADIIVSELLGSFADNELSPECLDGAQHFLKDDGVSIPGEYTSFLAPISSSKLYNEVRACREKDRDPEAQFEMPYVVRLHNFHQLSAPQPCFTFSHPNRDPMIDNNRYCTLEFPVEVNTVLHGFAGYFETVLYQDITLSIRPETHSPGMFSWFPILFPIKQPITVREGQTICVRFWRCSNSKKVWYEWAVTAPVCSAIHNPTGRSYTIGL
# Results are given in words; binding and its absence hold for the method and conditions named. In cells and extracts the contact can be indirect. Here binding means that the protein was enriched with, or labelled near, the bait; the list need not be complete. Where a sequence is shown, tags or fusion partners need not be part of it.
# Biological target: T1, GFP-CRN5 stably over-expressed in U373 cells (human) (UniProt Q92828)
# T1 sequence: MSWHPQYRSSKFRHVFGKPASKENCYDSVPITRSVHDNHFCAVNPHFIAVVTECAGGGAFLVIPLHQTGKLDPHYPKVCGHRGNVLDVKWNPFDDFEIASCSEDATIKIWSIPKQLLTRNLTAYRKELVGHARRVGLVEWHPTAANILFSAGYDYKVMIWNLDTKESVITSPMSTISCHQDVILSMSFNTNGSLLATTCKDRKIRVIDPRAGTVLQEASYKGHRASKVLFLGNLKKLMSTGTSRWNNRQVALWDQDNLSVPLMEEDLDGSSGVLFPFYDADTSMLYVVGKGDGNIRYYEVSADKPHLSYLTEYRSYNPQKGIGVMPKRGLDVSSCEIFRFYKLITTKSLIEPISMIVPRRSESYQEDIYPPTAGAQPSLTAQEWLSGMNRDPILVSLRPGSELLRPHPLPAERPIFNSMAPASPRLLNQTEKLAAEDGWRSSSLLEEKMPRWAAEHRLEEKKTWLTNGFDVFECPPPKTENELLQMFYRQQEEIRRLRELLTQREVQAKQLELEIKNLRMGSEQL
# Assay: affinity purification with mass spectrometry; lysates of U373 cells stably over-expressing GFP-CRN5; GFP-antibody coated magnetic microbeads; washes with 50 mM Tris HCl pH 8.0, 150 mM NaCl, 0.1 % Triton X-100; SDS-PAGE, Coomassie bands identified by mass spectrometry
substance,measurement,value
"PRMT5 (protein arginine N-methyltransferase 5), endogenous (from UniProt O14744 1-637) (enzyme)",binding,binds
